Experimental data taken from PMC5216914.
No constants are given. Whether binding was seen depends on the method and setting. In cells and extracts the contact can be indirect. Some binding calls cover weakened binding; strength is not graded here.

Amino acid sequences for entries named in this document (tags omitted).
UniProt Q9JLM9: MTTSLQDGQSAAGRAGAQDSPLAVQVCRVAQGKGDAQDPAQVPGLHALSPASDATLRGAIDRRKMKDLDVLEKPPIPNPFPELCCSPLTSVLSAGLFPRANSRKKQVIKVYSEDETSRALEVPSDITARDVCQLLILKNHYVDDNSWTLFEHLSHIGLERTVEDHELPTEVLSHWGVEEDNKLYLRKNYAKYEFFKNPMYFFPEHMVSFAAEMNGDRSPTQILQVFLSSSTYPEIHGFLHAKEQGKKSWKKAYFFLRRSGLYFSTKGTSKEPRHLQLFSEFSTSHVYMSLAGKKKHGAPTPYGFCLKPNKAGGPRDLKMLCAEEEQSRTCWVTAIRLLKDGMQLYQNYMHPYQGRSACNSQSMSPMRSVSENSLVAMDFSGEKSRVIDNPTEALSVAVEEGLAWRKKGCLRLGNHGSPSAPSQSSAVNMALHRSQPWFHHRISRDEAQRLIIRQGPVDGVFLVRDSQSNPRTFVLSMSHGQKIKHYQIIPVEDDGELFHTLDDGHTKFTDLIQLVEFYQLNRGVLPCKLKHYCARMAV

Assays:
[1] = target: GST-vSrc-SH2 fusion protein (UniProt P00524); test: pull-down; GST-vSrc-SH2 fusion protein incubated with retinal lysates of light-adapted (300 lux, 30 min) Nrl-/- mice; GST pull-down, blot with anti-Grb14 and anti-GST; only the target purified
[2] = target: GST-vSrc-SH2 fusion protein (UniProt P00524); test: condition: only retinal lysates of dark-adapted mice; pull-down; GST-vSrc-SH2 fusion protein incubated with retinal lysates of dark-adapted Nrl-/- mice; GST pull-down, blot with anti-Grb14 and anti-GST; only the target purified

Substance: growth factor receptor-bound protein 14 (Grb14) (from UniProt Q9JLM9 1-538)
- binding [1]: binds
- binding [2]: no binding
